The record followed here is article PMC3460623.

No constants are given. Whether binding was seen depends on the method and setting. Binding seen in cells or lysates may run through a third protein. Some binding calls cover weakened binding; strength is not graded here. For part of these data: Sequences can lack the tags named with a protein.

The target in assay [1] is T1, Phospholipase C γ1 (PLCγ1), endogenous (human (endogenous in HEK293 and HEK293T)) (UniProt P19174).
T1 sequence: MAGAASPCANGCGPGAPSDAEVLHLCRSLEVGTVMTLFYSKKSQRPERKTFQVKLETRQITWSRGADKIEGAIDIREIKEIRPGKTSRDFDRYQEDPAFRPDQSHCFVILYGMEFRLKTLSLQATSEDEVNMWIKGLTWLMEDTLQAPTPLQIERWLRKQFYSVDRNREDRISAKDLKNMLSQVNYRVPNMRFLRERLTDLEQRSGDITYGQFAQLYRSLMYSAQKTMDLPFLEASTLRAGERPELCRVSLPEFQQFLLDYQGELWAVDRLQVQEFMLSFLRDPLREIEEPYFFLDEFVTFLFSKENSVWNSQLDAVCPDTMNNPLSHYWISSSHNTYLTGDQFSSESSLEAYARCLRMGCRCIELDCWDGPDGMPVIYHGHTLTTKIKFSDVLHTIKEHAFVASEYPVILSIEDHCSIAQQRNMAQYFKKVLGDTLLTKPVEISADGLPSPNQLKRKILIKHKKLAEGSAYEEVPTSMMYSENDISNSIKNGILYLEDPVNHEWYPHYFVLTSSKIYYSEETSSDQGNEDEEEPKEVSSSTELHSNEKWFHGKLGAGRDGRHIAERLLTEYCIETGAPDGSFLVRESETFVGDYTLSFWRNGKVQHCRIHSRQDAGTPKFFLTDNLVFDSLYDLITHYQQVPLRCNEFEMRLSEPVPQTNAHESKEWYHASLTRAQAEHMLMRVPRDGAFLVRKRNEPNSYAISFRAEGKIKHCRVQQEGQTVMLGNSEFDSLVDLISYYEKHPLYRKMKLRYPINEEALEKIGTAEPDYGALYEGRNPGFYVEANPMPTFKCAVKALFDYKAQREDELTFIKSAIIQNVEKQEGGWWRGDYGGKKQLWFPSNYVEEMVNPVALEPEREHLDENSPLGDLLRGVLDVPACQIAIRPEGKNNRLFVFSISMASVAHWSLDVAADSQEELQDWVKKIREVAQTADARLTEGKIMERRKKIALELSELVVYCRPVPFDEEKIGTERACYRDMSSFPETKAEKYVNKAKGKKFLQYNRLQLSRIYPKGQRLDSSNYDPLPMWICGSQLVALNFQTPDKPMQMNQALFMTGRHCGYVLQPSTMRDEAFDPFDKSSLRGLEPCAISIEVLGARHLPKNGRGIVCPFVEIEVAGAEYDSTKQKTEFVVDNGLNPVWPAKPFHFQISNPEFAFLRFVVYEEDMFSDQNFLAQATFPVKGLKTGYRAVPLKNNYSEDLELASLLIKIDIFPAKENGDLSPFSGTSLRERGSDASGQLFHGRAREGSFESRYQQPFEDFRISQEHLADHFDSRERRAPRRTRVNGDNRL
Briefly: co-IP; HEK293 transiently transfected with pSF91 K15 vectors; HEPES lysis buffer (150 mM NaCl, 1% Triton-X100); endogenous PLCγ1 immunoprecipitated with rabbit anti-PLCγ1 and protein A Sepharose at 4°C; blot with polyclonal anti-K15.

Assay [2] addresses T1, Phospholipase C γ1 (PLCγ1), endogenous (human (endogenous in HEK293 and HEK293T)). In words: co-IP; HEK293T transiently transfected with pFJ-K15P or pFJ-K15M; endogenous PLCγ1 immunoprecipitated; K15 detected with an antibody to the FLAG tag.

B1: KSHV K15 protein, P allele, wild type (pSF91K15) (protein, UniProt Q9QR69 27-489)
chain: VTTNSIDTMASLLVMCILFVSAINKYTQAISSNNPKWPSSWHLGIIACIVLKLWNLSTTNSVTYACLITTAILSLVTAFLTLIKHCTACKLQLEHGILFTSTFAVLMTNMLVHMSNTWQSSWIFFPISFTLSLPFLYAFATVKTGNIKLVSSVSFICAGLVMGYPVSCCKTHTCTATAAGLSLSSIYLGFTGIISTLHKSWAPPKRGILTFLLLQGGVLTTQTLTTELLAITSTTGNIKGHEILLLVCLIFLWCLYVWQSFNKASLVTGMLHLIAAWSHTGGCVQLVMLLPSGLTRGILTMIICISTLFSTLQGLLVFYLYKEKKVVAVNSYRQRRRRIYTRDQNLHHNDNHLGNNVISPPPLPPFFRQPVRLPSHVTDRGRGSQLLNEVELQEVNRDPPNVFGYASILVSGAEESREPSPQPDQSGMSILRVDGGSAFRIDTAQAATQPTDDLYEEVLFPRN
Consider B1, for which the binding result in assay [1] is reported as “binds”.

B2: FLAG-tagged K15P (pFJ-K15P) (protein, UniProt Q9QR69 27-489)
chain: VTTNSIDTMASLLVMCILFVSAINKYTQAISSNNPKWPSSWHLGIIACIVLKLWNLSTTNSVTYACLITTAILSLVTAFLTLIKHCTACKLQLEHGILFTSTFAVLMTNMLVHMSNTWQSSWIFFPISFTLSLPFLYAFATVKTGNIKLVSSVSFICAGLVMGYPVSCCKTHTCTATAAGLSLSSIYLGFTGIISTLHKSWAPPKRGILTFLLLQGGVLTTQTLTTELLAITSTTGNIKGHEILLLVCLIFLWCLYVWQSFNKASLVTGMLHLIAAWSHTGGCVQLVMLLPSGLTRGILTMIICISTLFSTLQGLLVFYLYKEKKVVAVNSYRQRRRRIYTRDQNLHHNDNHLGNNVISPPPLPPFFRQPVRLPSHVTDRGRGSQLLNEVELQEVNRDPPNVFGYASILVSGAEESREPSPQPDQSGMSILRVDGGSAFRIDTAQAATQPTDDLYEEVLFPRN
With B2, in assay [2], the binding entry was “binds”.

B3: KSHV K15-P YF/ΔSH3 double mutant (pSF91K15/YF/ΔSH3) (protein, UniProt Q9QR69 27-489)
chain: VTTNSIDTMASLLVMCILFVSAINKYTQAISSNNPKWPSSWHLGIIACIVLKLWNLSTTNSVTYACLITTAILSLVTAFLTLIKHCTACKLQLEHGILFTSTFAVLMTNMLVHMSNTWQSSWIFFPISFTLSLPFLYAFATVKTGNIKLVSSVSFICAGLVMGYPVSCCKTHTCTATAAGLSLSSIYLGFTGIISTLHKSWAPPKRGILTFLLLQGGVLTTQTLTTELLAITSTTGNIKGHEILLLVCLIFLWCLYVWQSFNKASLVTGMLHLIAAWSHTGGCVQLVMLLPSGLTRGILTMIICISTLFSTLQGLLVFYLYKEKKVVAVNSYRQRRRRIYTRDQNLHHNDNHLGNNVISPAALAPFFRQPVRLPSHVTDRGRGSQLLNEVELQEVNRDPPNVFGYASILVSGAEESREPSPQPDQSGMSILRVDGGSAFRIDTAQAATQPTDDLFEEVLFPRN
On to B3, for which the binding result in assay [1] is given as “no binding”.
